Test results: PubChem BioAssay AID330 (DTP/NCI, 2004)
The list shows only some results of the screen, not a fair sample: it gathers tests that were run many times, whatever their T/C, doses with no T/C, and many T/C values between a quarter and a half above the control. Other doses and runs of a compound stand elsewhere. T/C: endpoint of the treated group in % of that of the vehicle group. Some entries give survivors of the animals treated and no T/C: the source files T/C as zero there, which appears to mark a toxic dose or a test without result, not a measured value. Some survivor counts are full or nearly so, which does not show that the dose was tolerated: survival well below the control is almost never listed, so the zero probably covers shortened survival too. Counts of survivors are from the toxicity check (mostly the fifth day) where no day follows; animals may have died later. Schedules are NCI's codes, read here as Q, the interval in days (D) or hours (H), X, the number of doses. Counts like (3×) say how often a value occurs here. Some doses were run more than once; the results are listed from low to high. Where survival is the endpoint, this PubChem deposit counts one and a half times the control or more as active, and values a quarter to a half above the control carry no call in these data; other NCI protocols may use other cut-offs.

System: P388 leukemia ip, CD2F1 mice, survival T/C
Assay: NCI In Vivo Anticancer Drug Screen. Data for tumor model P388 Leukemia (intraperitoneal) in CD2F1 (CDF1) mice
Conditions: T/C endpoint: median survival time, higher T/C = longer survival
[1] = dose: 400.0 mg/kg/injection, schedule: Q01DX009 (ip), vehicle: saline with Tween-80
[2] = dose: 200.0 mg/kg/injection, schedule: Q01DX005 (ip), vehicle: Klucel (hydroxypropylcellulose) (HPC)
[3] = dose: 200.0 mg/kg/injection, schedule: Q01DX009 (ip), vehicle: saline with Tween-80
[4] = dose: 200.0 mg/kg/injection, schedule: Q01DX009 (ip), vehicle: Klucel (hydroxypropylcellulose) (HPC)

## CCOC(=O)C1=C(C)NC(C)=C(C(=O)OCC)C1C
dose: 400.0 mg/kg/injection, schedule: Q01DX009 (ip), vehicle: saline
  survivor count: 5 of 6

## C1C[N-]CC[N-]CC[N-]CC[N-]1.[Cl][Rh][Cl]
dose: 1.56 mg/kg/injection, schedule: Q01DX009 (ip), vehicle: saline
  T/C: 138 % of control
dose: 25.0 mg/kg/injection, schedule: Q01DX009 (ip), vehicle: saline
  survivor count: 4 of 6

## Nc1cc2c(cc1Br)-c1ccccc1C2=O
[1]
  survivor count: 5 of 6

## COc1cccc2c1C(=O)c1c(O)c3c(c(O)c1C2=O)C[C@@](O)(C(=O)CSC(C)=O)C[C@@H]3OC1CC(N)C(O)C(C)O1 (stereo partly drawn)
dose: 1.56 mg/kg/injection, schedule: Q01DX009 (ip), vehicle: water
  T/C: 128 and 129 % of control
dose: 3.13 mg/kg/injection, schedule: Q01DX009 (ip), vehicle: water
  T/C: 135 and 136 % of control
dose: 6.25 mg/kg/injection, schedule: Q01DX009 (ip), vehicle: water
  T/C: 135 and 145 % of control
dose: 12.5 mg/kg/injection, schedule: Q01DX001 (ip), vehicle: water
  T/C: 126 % of control
dose: 12.5 mg/kg/injection, schedule: Q01DX009 (ip), vehicle: water
  T/C: 146 % of control (2×)
dose: 25.0 mg/kg/injection, schedule: Q01DX001 (ip), vehicle: water
  T/C: 129 % of control
dose: 50.0 mg/kg/injection, schedule: Q01DX001 (ip), vehicle: water
  survivor count: 3 of 6
dose: 100.0 mg/kg/injection, schedule: Q01DX001 (ip), vehicle: water
  survivor count: 3 of 6
dose: 200.0 mg/kg/injection, schedule: Q01DX001 (ip), vehicle: water
  survivor count: 0 of 6
dose: 400.0 mg/kg/injection, schedule: Q01DX001 (ip), vehicle: water
  survivor count: 0 of 6

## CC(=O)Oc1ccccc1C(=O)O
dose: 250.0 mg/kg/injection, schedule: Q01DX009 (ip), vehicle: saline with Tween-80
  survivor count: 3 of 6

## Clc1cccc(Cl)c1C(Nc1cnccn1)Nc1cnccn1
dose: 100.0 mg/kg/injection, schedule: Q01DX005 (ip), vehicle: Klucel (hydroxypropylcellulose) (HPC)
  T/C: 143 % of control
[2]
  T/C: 132 % of control
  survivor count: 0 of 6 and 1 of 6

## CCOC(=O)N(C)N=NCCCl
dose: 120.0 mg/kg/injection, schedule: Q01DX005 (ip), vehicle: saline with Tween-80
  survivor count: 3 of 6
dose: 240.0 mg/kg/injection, schedule: Q01DX005 (ip), vehicle: saline with Tween-80
  survivor count: 0 of 6

## COc1cc([C@@H]2c3cc4c(cc3[C@H](OC(C)=O)[C@H]3COC(=O)[C@@H]23)OCO4)cc(OC)c1OC
dose: 44.0 mg/kg/injection, schedule: Q04DX003 (ip), vehicle: saline with Tween-80
  survivor count: 6 of 6
dose: 100.0 mg/kg/injection, schedule: Q01DX009 (ip), vehicle: saline with Tween-80
  survivor count: 5 of 6

## CNC(=O)OCc1c(-c2ccccc2)c(-c2ccccc2)n(C)c1COC(=O)NC
dose: 3.13 mg/kg/injection, schedule: Q01DX009 (ip), vehicle: distilled water + Tween-80
  T/C: 128 % of control
dose: 6.25 mg/kg/injection, schedule: Q01DX009 (ip), vehicle: distilled water + Tween-80, evaluated on day 30
  T/C: 148 % of control
dose: 6.25 mg/kg/injection, schedule: Q01DX009 (ip), vehicle: distilled water + Tween-80, evaluated on day 45
  T/C: 138 % of control
dose: 100.0 mg/kg/injection, schedule: Q01DX009 (ip), vehicle: distilled water + Tween-80
  survivor count: 5 of 6 (2×)
dose: 200.0 mg/kg/injection, schedule: Q01DX009 (ip), vehicle: distilled water + Tween-80
  survivor count: 1 of 6

## CCCCNCCC(O)c1cc2ccc(C(F)(F)F)cc2c2cc(C(F)(F)F)ccc12 (stereo not drawn)
[3]
  survivor count: 1 of 6

## O=C(Oc1ccc(C2c3cc(OC(=O)c4ccccc4)c(OC(=O)c4ccccc4)cc3CC3C(=O)OCC32)cc1OC(=O)c1ccccc1)c1ccccc1 (stereo not drawn)
dose: 100.0 mg/kg/injection, schedule: Q01DX005 (ip), vehicle: saline with Tween-80
  survivor count: 5 of 5

## O=C(NC(=O)c1c(F)cccc1F)Nc1cc(Cl)c(F)c(Cl)c1F
dose: 15.0 mg/kg/injection, schedule: Q01DX005 (ip), vehicle: Klucel (hydroxypropylcellulose) (HPC)
  survivor count: 6 of 6
dose: 60.0 mg/kg/injection, schedule: Q01DX005 (ip), vehicle: Klucel (hydroxypropylcellulose) (HPC)
  survivor count: 6 of 6

## C=C1C(=O)OC2CC1C(O)C/C(C)=C/CC/C(C)=C/CCC2(C)O (stereo not drawn)
dose: 64.0 mg/kg/injection, schedule: Q01DX009 (ip), vehicle: Klucel (hydroxypropylcellulose) (HPC)
  survivor count: 3 of 6

## C=[CH][Pb]([CH]=C)([CH]=C)[O]C(C)=O
dose: 2.5 mg/kg/injection, schedule: Q01DX009 (ip), vehicle: saline with Tween-80
  T/C: 125 % of control
dose: 10.0 mg/kg/injection, schedule: Q01DX009 (ip), vehicle: saline with Tween-80
  survivor count: 6 of 6

## S=C1Cc2[nH]c(=S)sc(=S)c2C(=S)N1
dose: 50.0 mg/kg/injection, schedule: Q01DX009 (ip), vehicle: saline with Tween-80
  survivor count: 6 of 6
[3]
  survivor count: 6 of 6

## CSC(=O)NC(=O)NC(=O)c1ccc([N+](=O)[O-])cc1
[2]
  survivor count: 6 of 6

## CC(CCN(C)C)N(C)C (stereo not drawn)
dose: 200.0 mg/kg/injection, schedule: Q01DX005 (ip), vehicle: suspension in saline
  survivor count: 4 of 5

## CSc1cnnc2ccccc12
dose: 50.0 mg/kg/injection, schedule: Q01DX009 (ip), vehicle: Klucel (hydroxypropylcellulose) (HPC)
  T/C: 128 % of control
dose: 100.0 mg/kg/injection, schedule: Q01DX009 (ip), vehicle: Klucel (hydroxypropylcellulose) (HPC)
  survivor count: 3 of 6
[4]
  survivor count: 0 of 6

## c1ccc(NSc2ccccc2)cc1
[4]
  T/C: 127 % of control
dose: 400.0 mg/kg/injection, schedule: Q01DX009 (ip), vehicle: Klucel (hydroxypropylcellulose) (HPC)
  survivor count: 2 of 6

## C[C@]12CC[C@H](OC(=O)Cc3ccc(N(CCCl)CCCl)cc3)CC1CC[C@@H]1C2CC[C@]2(C)NC(=O)CCC12 (stereo partly drawn)
dose: 200.0 mg/kg/injection, schedule: Q01DX001 (ip), vehicle: saline with Tween-80
  survivor count: 1 of 6 and 2 of 6
dose: 400.0 mg/kg/injection, schedule: Q01DX001 (ip), vehicle: saline with Tween-80
  survivor count: 0 of 6

## COc1cc2cc3c4ccc(OC)c(OC)c4cc[n+]3c(C)c2cc1OC (tested in a mixture with another compound)
[3]
  survivor count: 0 of 6
[1]
  survivor count: 0 of 6

## Cc1ccc(C(=NN=C(c2ccc(C)cc2)c2ccc(C)cc2)c2ccc(C)cc2)cc1
dose: 400.0 mg/kg/injection, schedule: Q04DX002 (ip), vehicle: saline with Tween-80
  survivor count: 6 of 6

## O=NNc1cccnc1
dose: 25.0 mg/kg/injection, schedule: Q01DX009 (ip), vehicle: water
  T/C: 126 and 132 % of control
dose: 50.0 mg/kg/injection, schedule: Q01DX009 (ip), vehicle: water
  T/C: 145 and 148 % of control
dose: 100.0 mg/kg/injection, schedule: Q01DX009 (ip), vehicle: water
  survivor count: 0 of 6
dose: 200.0 mg/kg/injection, schedule: Q01DX009 (ip), vehicle: water
  survivor count: 0 of 6

## CCCCCCCC(=O)C1C(c2ccc(C(C)C)cc2)CC(=O)C(CCCCCC)C1c1ccc(C(C)C)cc1 (stereo not drawn)
dose: 50.0 mg/kg/injection, schedule: Q01DX005 (ip), vehicle: saline with Tween-80
  survivor count: 5 of 5
